Common to all, as to format: cell-based
One assay concerns A549 cells. Nature of the assay: MTT proliferation assay, non-small cell lung carcinoma A549. The note with it: Homo sapiens, A549, 120 h, Tumor Cell: NSCLC (A549), concentrations tested in microM. The text has this: (§1) We first screened compounds derived from the known pharmacopeia and from a selected natural product collection using two types of assays: (a) measurements of post-translational modifications of proteins; (b) measurements of protein-protein interactions. For the purpose of measuring post-translational modifications of proteins, we used immunofluorescence methods combined with phospho-specific antibodies. For the purpose of quantifying and localizing protein complexes we used fluorescence methods based on protein-fragment complementation assays (PCA). ‘Hits’ from the initial screens were then tested for antiproliferative activity in up to 5 different human tumor cell lines. […] For drugs with antiproliferative activity in PC-3 cells, dose-response curves were generated to determine the EC50 for antiproliferative activity and additional tumor cell lines were tested to determine the breadth of activity. Methods for assay development, validation, screening, and testing of antiproliferative activity are described below.
(§2) Cells were maintained in various media as follows: A549, LoVo and PC-3 (Ham's F12K medium with 2 mM L-glutamine and 1.5 g/L sodium bicarbonate), MIA PaCa-2 (Dulbecco's modified Eagle's medium with 4 mM L-glutamine and 4.5 g/L glucose), U87-MG (MEM+Earle's BSS). […] Background absorbance was established by wells containing medium but no cells. […]

A further assay relates to LoVo cells. Kind of assay: MTT proliferation assay, colon adenocarcinoma LoVo. Conditions: Homo sapiens, Tumor Cell: Colon (LoVo), 120 hours, concentrations tested in microM.
Description: as §1, §2

The next assay deals with MIA PaCa-2 cells. Nature of the assay: MTT proliferation assay, pancreatic carcinoma MIA PaCa-2. Conditions: Homo sapiens, MIA PaCa-2, 120 h, Tumor Cell: Pancreatic (MIA PaCa-2), concentrations tested in microM.
Description: as §1, §2

The subject of the next assay is PC-3 cells. Nature of the assay: MTT proliferation assay, prostate adenocarcinoma PC-3. Conditions: Homo sapiens, Tumor Cell: Prostate (PC-3), 120 hours, concentrations tested in microM.
Description: as §1, §2

For another assay, the system named is U-87 MG cells. Kind of assay: MTT proliferation assay, glioblastoma U-87 MG. Conditions: Homo sapiens, Tumor Cell: Glioblastoma (U-87 MG), 120 hours, concentrations tested in microM.
Description: as §1, §2

Drawing on patent US20060009506A1, “Drugs for the treatment of neoplastic disorders” (Odyssey Thera, Inc., priority 2004, published 2006), this text covers IC50 for 1 compound.

Molecules are shown by their SMILES.

`CC(C)OC(=O)C(C)(C)Oc1ccc(C(=O)c2ccc(Cl)cc2)cc1` [Fenofibrate]: the half-inhibitory concentration (IC50) was 41.6 µM in the assay with A549 cells; 19.1 µM in the assay on LoVo cells; 5.24 µM in the assay on MIA PaCa-2 cells; 34.3 µM in the assay with PC-3 cells; 40 µM with U-87 MG cells.
